Results are given in words; binding and its absence hold for the method and conditions named. Binding seen in cells or lysates may run through a third protein. Some binding calls cover weakened binding; strength is not graded here. For some assays here: Sequences can lack the tags named with a protein.
How the values were obtained:
PIAS1 = PIAS1 (UniProt O75925); assay: co-IP; immunoprecipitates of PIAS1 (Figure S2E); format not shown
Strep-HA-PIAS4 = target: T1, Strep-HA-PIAS4 (UniProt Q8N2W9); assay: pull-down; Strep-HA-PIAS4 complexes purified with Strep-Tactin Sepharose from transfected U2OS cells under replication stress (indicated agents, 24 hr); immunoblotting
T1 sequence: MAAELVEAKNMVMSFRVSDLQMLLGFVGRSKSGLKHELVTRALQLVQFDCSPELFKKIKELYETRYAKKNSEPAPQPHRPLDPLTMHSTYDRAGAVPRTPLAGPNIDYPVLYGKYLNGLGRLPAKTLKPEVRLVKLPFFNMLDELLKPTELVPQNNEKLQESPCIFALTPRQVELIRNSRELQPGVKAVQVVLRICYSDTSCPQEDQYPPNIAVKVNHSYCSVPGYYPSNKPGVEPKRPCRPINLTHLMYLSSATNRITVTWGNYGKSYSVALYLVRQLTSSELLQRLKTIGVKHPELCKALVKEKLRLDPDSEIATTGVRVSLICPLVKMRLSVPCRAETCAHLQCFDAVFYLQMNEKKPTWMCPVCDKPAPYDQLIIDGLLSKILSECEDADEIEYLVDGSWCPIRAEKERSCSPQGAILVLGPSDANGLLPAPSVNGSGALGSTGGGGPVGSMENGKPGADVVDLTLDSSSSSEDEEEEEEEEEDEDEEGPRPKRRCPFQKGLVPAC

By UniProt entry, the sequences of proteins in these tests, tags left out. Where a name states a change or a piece, a line headed by the entry shows the natural chain unless it says otherwise.
UniProt O75925: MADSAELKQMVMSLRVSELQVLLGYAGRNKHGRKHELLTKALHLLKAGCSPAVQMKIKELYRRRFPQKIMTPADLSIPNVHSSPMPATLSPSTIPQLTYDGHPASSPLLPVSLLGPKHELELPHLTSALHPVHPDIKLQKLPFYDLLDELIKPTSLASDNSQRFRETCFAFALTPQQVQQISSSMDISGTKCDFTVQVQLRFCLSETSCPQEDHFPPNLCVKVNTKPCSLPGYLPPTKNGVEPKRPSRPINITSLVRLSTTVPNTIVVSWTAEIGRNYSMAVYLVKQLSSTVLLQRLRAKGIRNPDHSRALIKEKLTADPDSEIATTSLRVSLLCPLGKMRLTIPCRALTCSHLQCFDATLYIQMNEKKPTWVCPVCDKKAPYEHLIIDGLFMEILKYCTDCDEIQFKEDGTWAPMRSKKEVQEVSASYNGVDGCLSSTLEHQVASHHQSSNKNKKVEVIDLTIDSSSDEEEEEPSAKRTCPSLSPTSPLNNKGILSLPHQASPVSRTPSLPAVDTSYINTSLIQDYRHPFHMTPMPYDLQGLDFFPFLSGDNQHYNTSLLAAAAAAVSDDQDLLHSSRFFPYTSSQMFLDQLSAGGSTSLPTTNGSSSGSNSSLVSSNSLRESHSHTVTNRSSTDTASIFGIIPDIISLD
UniProt Q9NVI1: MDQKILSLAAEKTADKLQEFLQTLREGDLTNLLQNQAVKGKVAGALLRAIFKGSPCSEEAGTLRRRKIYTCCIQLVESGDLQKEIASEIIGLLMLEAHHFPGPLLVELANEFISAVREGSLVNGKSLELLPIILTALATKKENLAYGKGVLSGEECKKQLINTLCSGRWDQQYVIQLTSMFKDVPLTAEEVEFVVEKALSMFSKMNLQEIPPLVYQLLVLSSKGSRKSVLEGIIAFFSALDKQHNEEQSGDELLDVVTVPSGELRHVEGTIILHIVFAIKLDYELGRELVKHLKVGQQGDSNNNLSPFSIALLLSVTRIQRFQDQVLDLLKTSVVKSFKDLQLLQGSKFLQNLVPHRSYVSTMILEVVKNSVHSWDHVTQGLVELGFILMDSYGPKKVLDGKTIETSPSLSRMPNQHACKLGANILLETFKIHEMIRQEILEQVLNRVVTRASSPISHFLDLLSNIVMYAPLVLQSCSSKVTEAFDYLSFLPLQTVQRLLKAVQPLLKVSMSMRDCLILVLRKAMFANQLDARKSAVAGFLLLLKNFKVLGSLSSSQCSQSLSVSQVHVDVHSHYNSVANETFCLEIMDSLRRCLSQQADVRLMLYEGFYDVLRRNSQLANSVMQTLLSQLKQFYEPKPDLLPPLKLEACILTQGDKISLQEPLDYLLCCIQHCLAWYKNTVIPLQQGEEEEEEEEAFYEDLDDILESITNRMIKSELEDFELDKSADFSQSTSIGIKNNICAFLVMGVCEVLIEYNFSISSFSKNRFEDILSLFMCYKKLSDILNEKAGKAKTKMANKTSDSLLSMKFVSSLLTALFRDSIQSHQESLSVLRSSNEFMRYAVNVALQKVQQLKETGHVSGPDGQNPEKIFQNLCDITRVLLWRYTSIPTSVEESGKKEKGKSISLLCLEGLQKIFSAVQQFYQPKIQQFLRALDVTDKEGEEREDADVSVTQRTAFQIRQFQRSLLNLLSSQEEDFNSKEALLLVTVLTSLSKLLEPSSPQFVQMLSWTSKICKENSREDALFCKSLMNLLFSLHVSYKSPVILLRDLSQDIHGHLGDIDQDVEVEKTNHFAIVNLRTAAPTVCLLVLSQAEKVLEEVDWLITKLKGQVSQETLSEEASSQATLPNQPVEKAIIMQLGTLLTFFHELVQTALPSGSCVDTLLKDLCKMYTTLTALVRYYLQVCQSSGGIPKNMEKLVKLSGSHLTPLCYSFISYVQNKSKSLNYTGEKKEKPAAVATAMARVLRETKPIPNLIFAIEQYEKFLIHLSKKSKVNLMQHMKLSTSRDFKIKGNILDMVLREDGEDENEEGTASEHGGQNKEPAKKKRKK

For “FANCI/FANCD2 complex (ID complex) (from UniProt Q9NVI1 1-1328; Q9BXW9 1-1451)”, the binding (PIAS1) was “binds” and the binding (Strep-HA-PIAS4) was “binds”.
